The target of the experiment is EML1-3DDK fusion protein (echinoderm microtubule associated protein like 1, mouse) (mouse) (UniProt Q05BC3). In words: co-IP; EML1-IP product from HEK293 cells expressing EML1-3DDK, blotted for NUDC and EML4.

Sequences of proteins named here, by UniProt entry; tags and fusion partners are left off.
UniProt Q05BC3: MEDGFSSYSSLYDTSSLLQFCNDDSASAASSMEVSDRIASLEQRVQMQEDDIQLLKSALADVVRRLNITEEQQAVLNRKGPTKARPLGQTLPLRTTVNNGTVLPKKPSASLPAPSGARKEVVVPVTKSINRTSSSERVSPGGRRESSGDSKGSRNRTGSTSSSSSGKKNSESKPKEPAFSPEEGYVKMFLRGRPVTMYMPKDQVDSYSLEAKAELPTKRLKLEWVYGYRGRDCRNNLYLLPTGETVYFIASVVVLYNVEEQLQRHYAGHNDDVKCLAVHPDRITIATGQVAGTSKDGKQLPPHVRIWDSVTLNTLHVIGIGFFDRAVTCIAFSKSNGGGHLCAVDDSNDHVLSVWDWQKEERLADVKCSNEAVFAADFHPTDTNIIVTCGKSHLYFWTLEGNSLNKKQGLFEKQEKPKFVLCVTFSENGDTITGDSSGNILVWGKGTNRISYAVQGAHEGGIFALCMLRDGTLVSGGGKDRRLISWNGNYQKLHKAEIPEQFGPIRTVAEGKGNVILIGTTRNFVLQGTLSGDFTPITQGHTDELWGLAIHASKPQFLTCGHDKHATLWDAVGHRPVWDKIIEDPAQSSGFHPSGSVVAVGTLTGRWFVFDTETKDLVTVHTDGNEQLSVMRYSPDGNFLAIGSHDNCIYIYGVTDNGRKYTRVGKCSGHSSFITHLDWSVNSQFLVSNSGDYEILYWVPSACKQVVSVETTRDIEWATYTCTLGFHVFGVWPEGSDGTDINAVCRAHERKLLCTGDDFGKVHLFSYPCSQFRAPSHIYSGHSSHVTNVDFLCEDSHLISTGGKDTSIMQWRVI

Results are given in words; binding and its absence hold for the method and conditions named. In cells and extracts the contact can be indirect. Some binding calls cover weakened binding; strength is not graded here.

B1: EML4 (protein, UniProt Q9HC35 1-981)
chain: MDGFAGSLDDSISAASTSDVQDRLSALESRVQQQEDEITVLKAALADVLRRLAISEDHVASVKKSVSSKGQPSPRAVIPMSCITNGSGANRKPSHTSAVSIAGKETLSSAAKSGTEKKKEKPQGQREKKEESHSNDQSPQIRASPSPQPSSQPLQIHRQTPESKNATPTKSIKRPSPAEKSHNSWENSDDSRNKLSKIPSTPKLIPKVTKTADKHKDVIINQEGEYIKMFMRGRPITMFIPSDVDNYDDIRTELPPEKLKLEWAYGYRGKDCRANVYLLPTGKIVYFIASVVVLFNYEERTQRHYLGHTDCVKCLAIHPDKIRIATGQIAGVDKDGRPLQPHVRVWDSVTLSTLQIIGLGTFERGVGCLDFSKADSGVHLCIIDDSNEHMLTVWDWQKKAKGAEIKTTNEVVLAVEFHPTDANTIITCGKSHIFFWTWSGNSLTRKQGIFGKYEKPKFVQCLAFLGNGDVLTGDSGGVMLIWSKTTVEPTPGKGPKGVYQISKQIKAHDGSVFTLCQMRNGMLLTGGGKDRKIILWDHDLNPEREIEVPDQYGTIRAVAEGKADQFLVGTSRNFILRGTFNDGFQIEVQGHTDELWGLATHPFKDLLLTCAQDRQVCLWNSMEHRLEWTRLVDEPGHCADFHPSGTVVAIGTHSGRWFVLDAETRDLVSIHTDGNEQLSVMRYSIDGTFLAVGSHDNFIYLYVVSENGRKYSRYGRCTGHSSYITHLDWSPDNKYIMSNSGDYEILYWDIPNGCKLIRNRSDCKDIDWTTYTCVLGFQVFGVWPEGSDGTDINALVRSHNRKVIAVADDFCKVHLFQYPCSKAKAPSHKYSAHSSHVTNVSFTHNDSHLISTGGKDMSIIQWKLVEKLSLPQNETVADTTLTKAPVSSTESVIQSNTPTPPPSQPLNETAEEESRISSSPTLLENSLEQTVEPSEDHSEEESEEGSGDLGEPLYEEPCNEISKEQAKATLLEDQQDPSPSS
Take B1: the binding entry is reported as “binds”.

For the origin of these results see PMC8194061.
